Test results as given in patent US9949992B2, “Bisphosphonate compositions and methods for treating and\or reducing cardiac dysfunction” (DUKE UNIVERSITY, priority 2011, dated 2018).

Experiment: Hydroxyapatite (HAP) affinity by chromatographic profiling on HAP column
Type: binding
Protocol: Mineral affinity for hydroxyapatite was evaluated by chromatographic profiling of different bisphosphonate compounds. Hydroxyapatite (HAP) ceramic spheres (20 mm diameter, BioRad) were packed in a 0.66×6.5 cm glass column (Omnifit®). The HAP columns were attached to a Waters 650E Advanced Protein Purification System (FPLC) (Millipore) in a running buffer of 1 mM KPO3 at pH 6.8. Each compound was prepared in 1 mM KPO3 buffer at pH6.8 and 400 μmoles were injected into the FPLC system. The bisphosphonate compounds were eluted in a gradient of phosphate buffer, concentration increasing from 1 mM up to 1000 mM and detected by a Waters 484 UV absorbance detector (Millipore) at their optimum wavelength. The results set forth in Table 1 show the HAP retention profiles of each compound and that some compounds have longer retention times.

Q: What does the source list for `NCCCC(O)(P(=O)(O)O)P(=O)(O)O` [Alendronate]?
A: HAP mineral binding (retention time in mins) (HAP column, phosphate gradient 1 mM to 1000 mM, pH 6.8): 17.5 min; HAP retention time / affinity for hydroxyapatite (in words) (comparison among tested bisphosphonates): longest retention time
